Values from PubChem BioAssay AID1259405 (NCATS, 2018).
Aim: 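Knock-downs that lift recombinant protein yield in hamster ovary cells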 (primary screen). Cells: Chinese hamster CHO-K1 ovary cells with stable secreted eGFP expression. Reagents: single siRNA against mouse genes, 0.8 pmol siRNA per well (2 µl of 400 nM stock). Timing: 3 days. Measured: 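Percent of the per-plate non-targeting control median for intracellular GFP per well by laser scanning cytometry and for cell viability by ATP luminescence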. Reading the numbers: GFP, % of control: higher = more GFP per well, higher productivity; viability (ATP), % of control: higher = more viable cells (more ATP). Call rule: 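Called active when intracellular GFP, relative to negative control, is at or above 120%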.
The whole screen tested about 50,000 reagents; shown is a random part of them. In the full data, about 4,000 (8%) were called active. 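Mouse siRNA library applied to hamster cells; one well for each siRNA.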 A number with no mark means an inactive call. The numbers tell different reagents against one gene apart.

Target gene,siRNA no.,"GFP, % of control","viability (ATP), % of control"
Nsg1 (neuron specific gene family member 1),1,61.9,72.3
Nsg1 (neuron specific gene family member 1),2,89.6,73.4
Nsg1 (neuron specific gene family member 1),3,89.2,32.2
Ctf2 (cardiotrophin 2),1,92.6,89.8
Ctf2 (cardiotrophin 2),2,51.9,34.8
Ctf2 (cardiotrophin 2),3,113,122
Sap30bp (SAP30 binding protein),1,77.1,112
Sap30bp (SAP30 binding protein),2,84.1,81.7
Sap30bp (SAP30 binding protein),3,81.2,61.4
Nup93 (nucleoporin 93),1,147 (active),120
Nup93 (nucleoporin 93),2,103,122
Nup93 (nucleoporin 93),3,104,93.9
"Lat2 (linker for activation of T cells family, member 2)",1,57.7,74.3
"Lat2 (linker for activation of T cells family, member 2)",2,112,61.5
"Lat2 (linker for activation of T cells family, member 2)",3,78.7,84.7
Art4 (ADP-ribosyltransferase 4),1,35.4,35.5
Art4 (ADP-ribosyltransferase 4),2,59.2,71.8
Art4 (ADP-ribosyltransferase 4),3,86.5,93.2
Ranbp10 (RAN binding protein 10),1,35.7,22.1
Ranbp10 (RAN binding protein 10),2,75.7,78.7
Ranbp10 (RAN binding protein 10),3,101,87.9
Clptm1 (cleft lip and palate associated transmembrane protein 1),1,65.6,87
Clptm1 (cleft lip and palate associated transmembrane protein 1),2,63.3,66
Clptm1 (cleft lip and palate associated transmembrane protein 1),3,100,128
Txndc5 (thioredoxin domain containing 5),1,32.2,42.9
Txndc5 (thioredoxin domain containing 5),2,92.7,94.4
Txndc5 (thioredoxin domain containing 5),3,69.2,66
Mynn (myoneurin),1,85.7,63.2
Mynn (myoneurin),2,74.3,79.7
Mynn (myoneurin),3,46.9,77.4
"Acad8 (acyl-Coenzyme A dehydrogenase family, member 8)",1,76.7,74.9
"Acad8 (acyl-Coenzyme A dehydrogenase family, member 8)",2,42.4,61.2
"Acad8 (acyl-Coenzyme A dehydrogenase family, member 8)",3,79.8,89.5
Srd5a3 (steroid 5 alpha-reductase 3),1,99.5,95.8
Srd5a3 (steroid 5 alpha-reductase 3),2,90.1,60.4
Nxf2 (nuclear RNA export factor 2),1,70.2,79.5
Nxf2 (nuclear RNA export factor 2),2,69.8,64.1
Nxf2 (nuclear RNA export factor 2),3,110,77.7

No new results follow: 11 of the entries above.
Target gene,siRNA no.,"GFP, % of control","viability (ATP), % of control"
Mynn (myoneurin),1,85.7,63.2
Mynn (myoneurin),2,74.3,79.7
Mynn (myoneurin),3,46.9,77.4
"Acad8 (acyl-Coenzyme A dehydrogenase family, member 8)",1,76.7,74.9
"Acad8 (acyl-Coenzyme A dehydrogenase family, member 8)",2,42.4,61.2
"Acad8 (acyl-Coenzyme A dehydrogenase family, member 8)",3,79.8,89.5
Srd5a3 (steroid 5 alpha-reductase 3),1,99.5,95.8
Srd5a3 (steroid 5 alpha-reductase 3),2,90.1,60.4
Nxf2 (nuclear RNA export factor 2),1,70.2,79.5
Nxf2 (nuclear RNA export factor 2),2,69.8,64.1
Nxf2 (nuclear RNA export factor 2),3,110,77.7

The listing continues:
Target gene,siRNA no.,"GFP, % of control","viability (ATP), % of control"
Matr3 (matrin 3),1,106,113
Matr3 (matrin 3),2,55.2,64.7
Matr3 (matrin 3),3,57.5,73.5
Msmo1 (methylsterol monoxygenase 1),1,62.9,57.4
Msmo1 (methylsterol monoxygenase 1),2,66,78.3
Msmo1 (methylsterol monoxygenase 1),3,17,12.3
Cdkn2a (cyclin dependent kinase inhibitor 2A),1,75.4,66
Cdkn2a (cyclin dependent kinase inhibitor 2A),2,68.6,43.5
Cdkn2a (cyclin dependent kinase inhibitor 2A),3,103,100
Cuta (cutA divalent cation tolerance homolog),1,65.1,25.4
Cuta (cutA divalent cation tolerance homolog),2,104,84.2
Cuta (cutA divalent cation tolerance homolog),3,120,90.6
"Mapre1 (microtubule-associated protein, RP/EB family, member 1)",1,66.8,50.3
"Mapre1 (microtubule-associated protein, RP/EB family, member 1)",2,75.2,64.3
"Mapre1 (microtubule-associated protein, RP/EB family, member 1)",3,68,54.8
"Zmym6 (zinc finger, MYM-type 6)",1,69.6,70.8
"Zmym6 (zinc finger, MYM-type 6)",2,36.2,53.5
"Zmym6 (zinc finger, MYM-type 6)",3,73.3,52.4
Ush2a (usherin),1,88.7,80.1
Ush2a (usherin),2,79.9,88.1
Ush2a (usherin),3,83.1,73.2
Srp19 (signal recognition particle 19),1,71.1,68.4
Srp19 (signal recognition particle 19),2,51.9,34.8
Srp19 (signal recognition particle 19),3,87,44.6
Zfp536 (zinc finger protein 536),1,42,54.3
Zfp536 (zinc finger protein 536),2,81.1,80.5
Zfp536 (zinc finger protein 536),3,107,81.4
Nkx2-3 (NK2 homeobox 3),1,83.6,95.3
Nkx2-3 (NK2 homeobox 3),2,117,61.7
Nkx2-3 (NK2 homeobox 3),3,85.7,75.3
Npy5r (neuropeptide Y receptor Y5),1,44,58.5
Npy5r (neuropeptide Y receptor Y5),2,56.5,49.7
Npy5r (neuropeptide Y receptor Y5),3,79.5,84.1
Adam15 (ADAM metallopeptidase domain 15),1,70.3,58.3
Adam15 (ADAM metallopeptidase domain 15),2,36.8,32.1
Adam15 (ADAM metallopeptidase domain 15),3,82.9,101
Diaph1 (diaphanous related formin 1),1,63.8,59.9
Diaph1 (diaphanous related formin 1),2,81.9,69.5
Diaph1 (diaphanous related formin 1),3,80.2,69
Spry2 (sprouty RTK signaling antagonist 2),1,127 (active),85.2
Spry2 (sprouty RTK signaling antagonist 2),2,57,50.9
Spry2 (sprouty RTK signaling antagonist 2),3,45.6,32.5
"Aldh16a1 (aldehyde dehydrogenase 16 family, member A1)",1,40,56.1
"Aldh16a1 (aldehyde dehydrogenase 16 family, member A1)",2,49.7,65.2
"Aldh16a1 (aldehyde dehydrogenase 16 family, member A1)",3,77.5,68
"Fam167b (family with sequence similarity 167, member B)",1,74.2,77.6
"Fam167b (family with sequence similarity 167, member B)",2,99.1,84.9
"Fam167b (family with sequence similarity 167, member B)",3,105,96.5
